Values from PubChem BioAssay AID504774 (Drosophila RNAi Screening Center, 2011).
In all, the deposit lists about 23,000 reagents; below is a random part of those with a known target gene and a result. 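Values are quantile-normalised luminescence on an arbitrary scale; higher means more cells surviving MMS.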 Not all columns of the deposit are shown.

Test: 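Fly genes whose loss alters survival after alkylation damage to DNA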 (primary screen)
Cells: Drosophila Kc167 cells
Reagents: long dsRNA against Drosophila genes, about 0.25 µg dsRNA per well
Timing: about 6 days: 3 days knock-down, then 3 days with or without MMS
Conditions: methyl methanesulphonate 0.004% (w/v) for 3 days after knock-down
Measurement: 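Viability in wells given MMS, read as ATP luminescence, normalised by quantiles plate by plate and averaged across replicates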
Reading the numbers: mean viability with MMS and viability with MMS: higher = more surviving cells after MMS

CG5897 [DRSC10555] showed mean viability with MMS 3.56e6; viability with MMS, replicate 1 = 4.10e6.
After knock-down of CG14837 [DRSC10207], the screen gave mean viability with MMS 3.51e6; viability with MMS, replicate 1 = 3.90e6.
BORCS5 [DRSC19427] showed mean viability with MMS 3.66e6; viability with MMS, replicate 1 = 3.91e6.
With knock-down of Pitslre [DRSC11874], the screen gave mean viability with MMS 3.33e6; viability with MMS, replicate 1 = 3.72e6.
Silencing of Pitslre [DRSC23346] came out at: mean viability with MMS 1.44e6; viability with MMS, replicate 1 = 1.31e6.
Depletion of Strica [DRSC04920] resulted in: mean viability with MMS 3.57e6; viability with MMS, replicate 1 = 4.00e6.
For sca [DRSC07677] the deposit lists mean viability with MMS 3.49e6; viability with MMS, replicate 1 = 3.93e6.
Nnp-1 [DRSC02165] scored mean viability with MMS 3.47e6; viability with MMS, replicate 1 = 3.99e6.
CG12926 [DRSC06239] showed mean viability with MMS 3.50e6; viability with MMS, replicate 1 = 3.98e6.
Against CG12926 [DRSC21930], the entry reads mean viability with MMS 3.50e6; viability with MMS, replicate 1 = 4.02e6.
With knock-down of nclb [DRSC07009], the record shows mean viability with MMS 3.42e6; viability with MMS, replicate 1 = 3.89e6.
Silencing of Tat [DRSC19602] resulted in: mean viability with MMS 3.73e6; viability with MMS, replicate 1 = 4.21e6.
Hsc70-1 [DRSC11185] gave mean viability with MMS 3.22e6; viability with MMS, replicate 1 = 3.58e6.
Reps [DRSC02940] showed mean viability with MMS 3.90e6; viability with MMS, replicate 1 = 4.07e6.

2 neighbouring reagents from above, for reference:
CG5897 [DRSC10555] | mean viability with MMS: 3.56e6; viability with MMS, replicate 1: 4.10e6
CG14837 [DRSC10207] | mean viability with MMS: 3.51e6; viability with MMS, replicate 1: 3.90e6

The listing continues:
CG42254 (retired record) [DRSC06194] gave mean viability with MMS 3.45e6; viability with MMS, replicate 1 = 4.03e6.
Against CG10465 [DRSC04848], the entry reads mean viability with MMS 3.51e6; viability with MMS, replicate 1 = 3.93e6.
After knock-down of CG15643 [DRSC19679] the results were mean viability with MMS 3.69e6; viability with MMS, replicate 1 = 4.19e6.
CG12084 [DRSC08247] scored mean viability with MMS 3.68e6; viability with MMS, replicate 1 = 4.20e6.
With knock-down of Mdr50 [DRSC07467] the results were mean viability with MMS 3.30e6; viability with MMS, replicate 1 = 3.77e6.
Against CG18853 [DRSC06795], the entry reads mean viability with MMS 3.63e6; viability with MMS, replicate 1 = 4.17e6.
Knock-down of tej [DRSC07219] came out at: mean viability with MMS 3.49e6; viability with MMS, replicate 1 = 3.85e6.
Knock-down of Vha14-2 [DRSC12145] came out at: mean viability with MMS 3.79e6; viability with MMS, replicate 1 = 4.22e6.
With knock-down of sli [DRSC07684], the record shows mean viability with MMS 3.53e6; viability with MMS, replicate 1 = 4.02e6.
Depletion of CG16719 [DRSC10222] came out at: mean viability with MMS 3.48e6; viability with MMS, replicate 1 = 4.02e6.
Against CG14218 [DRSC19575] the deposit lists mean viability with MMS 3.51e6; viability with MMS, replicate 1 = 3.95e6.
With knock-down of CG13712 [DRSC08321], the record shows mean viability with MMS 3.64e6; viability with MMS, replicate 1 = 4.24e6.
After knock-down of tadr [DRSC03177] the results were mean viability with MMS 3.53e6; viability with MMS, replicate 1 = 4.02e6.
Against CG14126 (retired record) [DRSC10130] the deposit lists mean viability with MMS 3.74e6; viability with MMS, replicate 1 = 4.19e6.
Vha26 [DRSC12371] gave mean viability with MMS 3.47e6; viability with MMS, replicate 1 = 3.89e6.
For Eph [DRSC17164], the entry reads mean viability with MMS 3.48e6; viability with MMS, replicate 1 = 3.92e6.
After knock-down of CG10510 [DRSC11614] the results were mean viability with MMS 3.36e6; viability with MMS, replicate 1 = 3.93e6.
With knock-down of Tm1 [DRSC13082], the screen gave mean viability with MMS 3.49e6; viability with MMS, replicate 1 = 4.07e6.
Against Tm1 [DRSC13083], the values are mean viability with MMS 3.56e6; viability with MMS, replicate 1 = 4.07e6.
With knock-down of Tm1 [DRSC16886], the record shows mean viability with MMS 3.55e6; viability with MMS, replicate 1 = 4.04e6.
After knock-down of CG3223 [DRSC15468], the screen gave mean viability with MMS 3.53e6; viability with MMS, replicate 1 = 4.10e6.
